The list shows a part of the results.

The test is described as follows: KCNK9 potassium channel inhibitors, primary screen, HEK293 cells, thallium flux (AID 488922).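 Also: negative B-score means less thallium flux so channel inhibition.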 Particulars: HEK293 KCNK9, FluxOR thallium flux fluorescence; initial fluorescence intensity artifact flag; at 10 µM.
For `O=P(Nc1nccs1)(c1ccccc1)c1nc2ccccc2s1` (stereo unspecified), the B-score was 0.609.

The values are drawn from PubChem BioAssay AID488922 (Johns Hopkins Ion Channel Center, 2010).
